This note sets out measurements from PubChem BioAssay AID493014 (National Center for Advancing Translational Sciences (NCATS), 2011).

The list shows a part of the results. Shown are side measurements of this screen, not its main read-out; they come without a call. Most of these compounds were active or inconclusive in the main read-out, so they are no random draw. The note in brackets gives the kind of curve behind each potency; many fits are weak.

The assay in a line: qHTS Assay to Find Inhibitors of Chronic Active B-Cell Receptor Signaling. The note with it: ABC-DLBCL IkBa-CBG/CBR reporter, luminescence ratio (green luciferase fused to IkBa over red control in TMD8 lymphoma cells), 4 h. In short, it runs like this:
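Compounds up to 46 uM were incubated four hours with TMD8 cells whose green CBG68 luciferase is fused to IkappaBalpha; red CBR luminescence normalised the signal, and concentration-effect curves were fitted to fusion, red and ratio data.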

Setting [1] is: measured here: CBR red luminescence, cell number.
[2] abbreviates: measured here: IkBa-CBG green luminescence.

For the compound `Cc1nn(Cc2ccccc2Cl)c2sc(C(=O)NCc3ccc4c(c3)OCO4)cc12`, under setting [1], the AC50 was 5.8 µM [rising, full curve, poor fit].

Take `C=CC[C@H](CC(=O)N[C@H](CO)Cc1ccccc1)C(=O)N[C@@H](COC(=O)[C@H](CC=C)CC(=O)OC(C)(C)C)Cc1c[nH]c2ccccc12`: under setting [1], the AC50 is 25.9 µM [falling, single point].

For the compound `Cc1ccc(S(=O)(=O)N(Cc2n[nH]c(=S)n2-c2ccccc2)c2cccc(Cl)c2)cc1`, the AC50 under setting [1] is 0.447 µM [falling, full curve].

`CCC1Sc2ccc(S(=O)(=O)Nc3cc(OC)cc(OC)c3)cc2NC1=O` (configuration not stated): the AC50 under setting [1] was 17.8 µM [falling, single point].

Turning to `Cc1ccc(S(=O)(=O)Nc2ccc3nc(-c4cccn4C)[nH]c3c2)cc1`, under setting [1], the AC50 is 7.31 µM [falling, partial curve, poor fit].

Take `COc1cccc(-c2nc(CCl)cs2)c1OC`: under setting [2], the AC50 is 11.2 µM [falling, partial curve, poor fit].

Turning to `O=[N+]([O-])c1cccc(/C([O-])=C(/C(=S)Nc2ccccc2)[n+]2ccccc2)c1`, the AC50 under setting [1] was 23.1 µM [falling, partial curve].

`COC(=O)C1CSc2[nH]c(=O)sc2C1c1ccc(OC)c(OC)c1` (configuration not stated): the AC50 under setting [1] was 0.2 µM [rising, full curve, poor fit].

For the compound `C=CCNCCCCOc1c(Cl)cc(C)cc1Br`, the AC50 under setting [1] was 7.94 µM [falling, partial curve].

For the compound `Cc1[nH]c2ccccc2c1/C=N/NC(=O)Nc1ccccc1`, the AC50 under setting [1] is 14.1 µM [falling, single point].

For the compound `Clc1ccc(-c2nnc(-c3ccccc3)c(-c3c[nH]c4ccccc34)n2)cc1`, the AC50 under setting [1] is 11.2 µM [falling, partial curve, poor fit].

Take `COc1ccc(OC)c(N/C(N)=N/c2nc(C)cc(C)n2)c1`: the AC50 under setting [1] was 3.98 µM [falling, partial curve, poor fit].

`COc1ccc(OC)c(C2NC(=O)CCC2[N+](=O)[O-])c1` (configuration not stated): under setting [1], the AC50 is 35.5 µM [rising, single point].

As for `CC(C)c1ccc(NC(=S)NNC(=O)C2CC2)cc1`, the AC50 under setting [1] is 3.55 µM [rising, partial curve, poor fit].

For `CCN(CC(=O)NCc1cccs1)C(=O)COc1ccccc1C#N`, under setting [1], the AC50 was 29.1 µM [falling, single point].

Take `Cc1nc2ccccc2c(=O)n1CC(=O)N1CCOCC1`: the AC50 under setting [1] was 9.2 µM [rising, single point].

With `O=C(O)COCC(=O)Nc1ccc2c(c1)oc1ccccc12`, the AC50 under setting [1] was 17.8 µM [falling, partial curve].

On to `O=C(O)c1ccc(NC(CSCc2ccc(F)cc2)C(=O)O)c([N+](=O)[O-])c1` (configuration not stated), for which the AC50 under setting [1] is 18.4 µM [falling, partial curve, poor fit].

Regarding `Cc1ccc(CSC2=Nc3ccccc3C3=NC(CC(=O)NCc4ccco4)C(=O)N23)cc1` (configuration not stated), the AC50 under setting [1] is 20.6 µM [falling, single point].

`Cc1cccc(/C=N\Nc2cn[nH]c(=O)c2Cl)c1`: the AC50 under setting [1] was 12.6 µM [rising, partial curve].

With `CC(=O)n1nc(-c2ccc(C)cc2)nc1NCc1ccc(F)cc1`, under setting [1], the AC50 was 25.1 µM [rising, single point].

`Brc1ccc(-n2cnc(-c3ccccc3)c2)cc1`: the concentration at half-maximal activity (AC50) under setting [1] was 0.447 µM [rising, full curve, poor fit].

For `CCOc1cc(C(=O)OCC(=O)Nc2ccc(SC(F)F)cc2)cc(OCC)c1OCC`, the AC50 under setting [1] was 3.26 µM [rising, single point].

`COc1cccc(/C=N/NC(=O)CSc2nnc(C)n2-c2ccccc2)c1O`: under setting [1], the AC50 was 3.55 µM [falling, partial curve].

Regarding `Cc1ccc(C(=O)O/N=C(\N)Cc2cccs2)c(Cl)c1`, the AC50 reads like this: under setting [1], 0.794 µM [rising, full curve, poor fit]; under setting [2], 35.5 µM [falling, partial curve, poor fit].

In the case of `Cc1ccc(NCN2C(=O)C(=O)c3ccccc32)nc1`, the AC50 under setting [1] is 29.1 µM [rising, partial curve, poor fit] and the AC50 under setting [2] is 29.1 µM [falling, single point].

Turning to `COc1ccc2[nH]c3c(c2c1)CCN1C(=O)C(CC(=O)NCC24CC5CC(CC(C5)C2)C4)C[C@H](C(=O)N2CCCCC2)[C@@]31C` (some centres not stated), the AC50 by setting is: under setting [1], 23.1 µM [rising, partial curve, poor fit]; under setting [2], 5.17 µM [falling, partial curve, poor fit].

As to `COc1ccc(C(=O)Nc2cc(C)ccc2NC(=O)COc2ccccc2)cc1`, under setting [1], the AC50 was 16.4 µM [rising, partial curve].

Turning to `CCOC(=O)C1=NN(c2ccc(OC)cc2)C(c2ccccc2)CC1=O` (configuration not stated), under setting [1], the AC50 is 29.1 µM [falling, single point].

Take `COc1cc(C(=O)NCC(c2cccs2)N2CCc3ccccc32)cc(OC)c1OC` (configuration not stated): the AC50 under setting [1] is 29.1 µM [falling, single point] and the AC50 under setting [2] is 32.6 µM [rising, partial curve, poor fit].

Turning to `COc1cc2c(cc1OC)-c1cc(Nc3ccc(C)cc3)nc(=O)n1CC2`, under setting [2], the AC50 is 14.1 µM [falling, partial curve].

`CC(C)(C)C(=O)OCc1nc(-c2ccc(F)cc2)cs1`: under setting [1], the AC50 was 3.98 µM [rising, full curve].

With `CCNC(=S)NNC(=O)Nc1ccccc1`, the AC50 under setting [1] is 29.1 µM [rising, single point].

For `CCOc1ncccc1C(=O)Nc1ncc(C)s1`, the AC50 under setting [1] was 31.6 µM [falling, single point].

For the compound `Cc1ccccc1N(C(=O)Cc1ccsc1)C(C(=O)NC1CCCCC1)c1ccc(F)cc1` (configuration not stated), under setting [1], the AC50 was 28.2 µM [falling, single point].

As for `Nc1nc2c(F)cccc2s1`, under setting [1], the AC50 was 0.82 µM [rising, full curve, poor fit].

As to `Cc1cc(C(=O)COC(=O)CNS(=O)(=O)c2ccc3ccccc3c2)c(C)n1-c1ccccc1`, the AC50 under setting [1] is 23.1 µM [rising, single point].

Regarding `c1ccc(-c2cn3nc4c(nc3n2)CCCC4)cc1`, the AC50 under setting [1] was 6.51 µM [falling, partial curve].

As for `Cc1ccccc1OCC(=O)NNC(=S)NC(=O)c1ccccc1[N+](=O)[O-]`, the half-maximal activity concentration (AC50) under setting [1] is 18.4 µM [falling, single point].

Turning to `O=C1/C(=C/c2cccs2)SC(=S)N1CCCC(=O)N(CCO)c1ccccc1`, under setting [1], the AC50 was 35.5 µM [falling, single point].

Turning to `CC(C)Cn1c(=O)c2c(nc3n2CC(C)CN3Cc2ccccc2)n(C)c1=O` (configuration not stated), the AC50 under setting [1] was 5.01 µM [falling, partial curve, poor fit].

For `COc1ccc(C/C(C)=N/NC(=S)Nc2ccc(Cl)cc2)cc1`, the AC50 under setting [1] was 17.8 µM [rising, partial curve, poor fit].

Consider `COC(=O)c1ccccc1NC(=O)CSc1nnc(C(C)NC(=O)c2ccc(Cl)cc2Cl)n1C` (configuration not stated), for which, under setting [1], the AC50 is 0.058 µM [rising, full curve, poor fit].

On to `COc1ccc(CN2CCN(C(=O)c3ccco3)CC2)cc1OCc1ccccc1`, for which, under setting [1], the AC50 was 8.91 µM [rising, partial curve].

As to `Nc1cccc(-c2nc3ccccc3s2)c1`, the AC50 under setting [1] is 2.31 µM [rising, partial curve, poor fit].

For the compound `O=C(CSc1nccc(-c2cccs2)n1)Nc1ccc(Cl)cc1`, the AC50 under setting [1] is 25.1 µM [rising, single point].

On to `CC(C)OCCCn1c(SCC(N)=O)nc2c(sc3ccccc32)c1=O`, for which, under setting [1], the AC50 was 0.708 µM [falling, full curve, poor fit].

Regarding `O=C(Nc1ccccc1)Nc1cccc2cccnc12`, the AC50 under setting [1] was 13 µM [falling, partial curve].

On to `CC(C)(C)Nc1nc(Cl)nc(Nc2ccccc2)n1`, for which, under setting [1], the AC50 is 11.2 µM [falling, partial curve, poor fit].

As to `CCSc1nnc(NC(=O)c2c(C)noc2C)s1`, the concentration at half-maximal activity (AC50) under setting [1] is 11.2 µM [falling, partial curve, poor fit].

Turning to `CCCC[C@@H]1CNCCN1CCc1cccc2ccccc12`, the AC50 under setting [1] is 29.1 µM [falling, single point].

`c1ccc(OCc2nc(-c3ccccc3)no2)cc1`: under setting [1], the AC50 is 29.1 µM [falling, partial curve, poor fit].

For the compound `COC(=O)c1ccccc1NC(=O)CCc1ccccc1`, the AC50 under setting [1] was 32.6 µM [falling, single point].

For the compound `O=C(Cc1ccc(Nc2nc3ccc(Br)cc3[nH]2)cc1)NCCc1cccs1`, under setting [1], the AC50 is 29.1 µM [falling, single point].

On to `CCOc1ccc(NC(=O)c2ccc(NCC(=O)N3CCCCCC3)cc2)cc1`, for which the AC50 under setting [1] was 7.08 µM [falling, partial curve].

For `C/C(=N\NC(=O)c1ccccc1C)c1cccc([N+](=O)[O-])c1`, the concentration at half-maximal activity (AC50) under setting [1] is 16.4 µM [falling, partial curve, poor fit].

In the case of `O=C(Nc1ccc(Cl)c(Cl)c1)c1cc(S(=O)(=O)N2CCN(c3cccc(Cl)c3)CC2)ccc1F`, the concentration at half-maximal activity (AC50) under setting [1] was 2.51 µM [falling, partial curve, poor fit].

For the compound `CC(C)c1nnc(NC(=O)CCC(=O)N2CCN(C3c4ccccc4-c4ccccc43)CC2)s1`, the AC50 under setting [1] is 2.31 µM [rising, full curve].

`CN(C)c1cccc(C(=O)NNC(=S)NC2CC3CCC2C3)c1` (configuration not stated): the half-maximal activity concentration (AC50) under setting [1] is 8.91 µM [falling, partial curve].

As for `COc1ccccc1N1C(=O)C(Cl)=C(N2CCCC2)C1=O`, the AC50 under setting [1] is 35.5 µM [falling, single point].

In the case of `C/C(=N\NC(=O)c1n[nH]c2c1CCC2)c1ccco1`, the AC50 reads like this: under setting [1], 2.51 µM [falling, full curve]; under setting [2], 35.5 µM [falling, single point].

Consider `COc1cccc2cc(C(=O)NCCc3c[nH]c4ccccc34)c(=O)oc12`, for which, under setting [1], the AC50 was 14.1 µM [falling, partial curve, poor fit].
